These are yes or no findings as the source states them, for the method shown. Binding seen in cells or lysates may run through a third protein. Some results given as binding are weak or reduced against the parent protein; the word gives no strength. For some assays here: Sequences can lack the tags named with a protein.

Assay [1] concerns the target T1, rOctn2 wild type with C-terminal 3xFLAG (p3xFLAG-CMV14/OCTN2) (rat) (UniProt O70594).
T1 sequence: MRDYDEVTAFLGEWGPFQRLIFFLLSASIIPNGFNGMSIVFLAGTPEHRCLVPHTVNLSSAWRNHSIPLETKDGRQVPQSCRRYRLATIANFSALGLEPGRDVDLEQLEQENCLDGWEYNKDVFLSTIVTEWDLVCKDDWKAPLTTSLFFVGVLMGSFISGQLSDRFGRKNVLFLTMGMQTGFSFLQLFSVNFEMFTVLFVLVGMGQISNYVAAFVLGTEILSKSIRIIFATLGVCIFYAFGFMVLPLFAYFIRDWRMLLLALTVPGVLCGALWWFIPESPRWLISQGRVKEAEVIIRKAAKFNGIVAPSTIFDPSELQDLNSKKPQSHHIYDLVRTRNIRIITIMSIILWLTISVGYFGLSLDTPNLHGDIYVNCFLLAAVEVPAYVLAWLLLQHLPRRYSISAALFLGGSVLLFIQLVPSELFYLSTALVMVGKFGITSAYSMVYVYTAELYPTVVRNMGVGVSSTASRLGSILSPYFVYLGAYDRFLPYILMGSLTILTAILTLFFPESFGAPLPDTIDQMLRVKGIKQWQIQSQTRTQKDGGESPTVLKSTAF
As to the kind of experiment: co-IP; HEK293 cells with rOctn2-3xFLAG or its deletion mutants, lysed in 150 mM NaCl, 50 mM Tris pH 7.4, 1% Nonidet P40; anti-FLAG M2 affinity agarose, elution with 3xFLAG peptide; blot for caveolin-1; clones with equal FLAG level, band intensity normalized to FLAG.

In assay [2] the target is T2, rOctn2 Δ447–454 with C-terminal 3xFLAG (p3xFLAG-CMV14/OCTN2-Δ447–454) (rat) (UniProt O70594).
T2 sequence: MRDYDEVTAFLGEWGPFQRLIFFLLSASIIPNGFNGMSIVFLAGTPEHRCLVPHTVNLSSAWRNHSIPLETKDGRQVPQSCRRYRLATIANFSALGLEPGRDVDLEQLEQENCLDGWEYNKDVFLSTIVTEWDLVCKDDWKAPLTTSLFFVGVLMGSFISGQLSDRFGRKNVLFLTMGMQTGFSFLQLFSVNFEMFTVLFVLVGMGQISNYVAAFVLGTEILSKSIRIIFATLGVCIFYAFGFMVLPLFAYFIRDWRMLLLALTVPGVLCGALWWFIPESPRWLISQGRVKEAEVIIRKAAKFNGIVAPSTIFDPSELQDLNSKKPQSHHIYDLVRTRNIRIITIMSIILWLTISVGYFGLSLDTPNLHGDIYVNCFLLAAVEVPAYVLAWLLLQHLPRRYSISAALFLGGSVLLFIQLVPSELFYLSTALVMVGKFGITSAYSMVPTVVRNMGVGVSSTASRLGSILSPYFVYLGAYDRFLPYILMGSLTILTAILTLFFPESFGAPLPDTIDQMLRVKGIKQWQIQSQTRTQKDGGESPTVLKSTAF
The description is as above.

Assay [3] deals with T3, Organic cation/carnitine transporter Octn2 (rat, endogenous in astrocytes) (rat (endogenous in astrocytes)) (UniProt O70594).
T3 sequence: T1 sequence
As to the kind of experiment: co-IP; astrocyte homogenates, precleared, immunoprecipitated with anti-Octn2 antibody (4 µg) on Protein A Sepharose CL-4B; blots for caveolin-1 and flotillin-1; cells treated with vehicle, 200 nM PMA (30 min) or 10 µM Bis II then PMA.

Assay [4] addresses T3, Organic cation/carnitine transporter Octn2 (rat, endogenous in astrocytes) (rat (endogenous in astrocytes)). As to the kind of experiment: proximity ligation; astrocytes, control or 200 nM PMA, fixed with 4% paraformaldehyde, permeabilized with 0.1% Triton X-100; one rabbit and one mouse primary antibody (1:100); fluorescence referred to number of nuclei; distance not exceeding 40 nm.

The target of assay [5] is T4, Caveolin-1 (rat, endogenous in astrocytes) (rat (endogenous in astrocytes)) (UniProt P41350).
T4 sequence: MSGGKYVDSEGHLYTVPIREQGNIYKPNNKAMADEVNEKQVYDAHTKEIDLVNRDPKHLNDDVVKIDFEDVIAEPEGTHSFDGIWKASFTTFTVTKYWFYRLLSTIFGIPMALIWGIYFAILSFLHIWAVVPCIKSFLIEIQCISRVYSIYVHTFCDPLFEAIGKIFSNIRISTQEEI
The assay is described as above.

As for “Caveolin-1 (endogenous in HEK293 cells) (from UniProt Q03135 1-178)”, the binding entry in assay [1] and in assay [2] was “binds” throughout.

B1: Caveolin-1 (rat, endogenous in astrocytes) (protein, UniProt P41350 1-178)
chain: T4 sequence
As for B1, the binding result in assay [3] and in assay [4] was “binds” in each case.

B2: Flotillin-1 (rat, endogenous in astrocytes) (protein, UniProt Q9Z1E1 1-428)
chain: MFFTCGPNEAMVVSGFCRSPPVMVAGGRVFVLPCIQQIQRISLNTLTLNVKSEKVYTRHGVPISVTGIAQVKIQGQNKEMLAAACQMFLGKTEAEIAHIALETLEGHQRAIMAHMTVEEIYKDRQKFSEQVFKVASSDLVNMGISVVSYTLKDIHDDQDYLHSLGKARTAQVQKDARIGEAEAKRDAGIREAKAKQEKVSAQCLSEIEMAKAQRDYELKKATYDIEVNTRRAQADLAYQLQVAKTKQQIEEQRVQVQVVERAQQVAVQEQEIARREKELEARVRKPAEAERYRLERLAEAEKAQLIMQAEAEAESVRMRGEAEAFAVGARARAEAEQMAKKAEAFQMYQEAAQLDMLLEKLPQVAEEISGPLTSANKITLVSSGSGTMGAAKVTGEVLDILSRLPESVERLTGVSISQVNHNKPLRTA
Regarding B2, the binding result in assay [5] is reported as “no binding”.
